Assay [1] has as its target monkey cMET (Macaca fascicularis, Cynomolgus Macaque) (Cynomolgus Macaque (Macaca fascicularis)). Put plainly: ELISA, species cross-reactivity (NHP column).
Assay [2] has the same target. Put plainly: ELISA, species cross-reactivity, antibody titrated on cynomolgus cMET; x axis printed -8 to 2 with ug/mL (log10).
The target in the next assay is T1, human cMET (human, UniProt P08581 25-932, limits assumed).
T1 construct: also called hMET; HGFR
Kind of assay: ELISA, species cross-reactivity, antibody titrated on human cMET; x axis printed -8 to 2 with ug/mL (log10).

Assay [3] concerns the target T2, Recombinant Human c-Met-10x His (human, UniProt P08581 25-932).
T2 construct: Made in-house
Kind of assay: MET Binding ELISA on plate-bound human cMET; y axis Luminescence.

For assay [4], the target named is T2, Recombinant Human c-Met-10x His. Kind of assay: cMET binding ELISA as in Example 3 (plate-bound human cMET).

No constants are given. Whether binding was seen depends on the method and setting. Some results given as binding are weak or reduced against the parent protein; the word gives no strength.

B1: F6AP8E2 mouse monoclonal anti-cMET antibody (antibody, V domains shown)
VH: EVQLQQSGAELVRPGALVKLSCKASGFNINDYFMHWVKQRPEQGLEWIGWIDPENGNTIYDPKFQGKASITADTSSNTAYLQLSSLTSEDTAVYYCARGGNYLRESYYYAMDYWGQGTSVTVSS
VL: DIVMTQSPKSMSMSVGERVTLSCKASENVGTYVSWYQQKPDQSPKLLIYGASNRYTGVPDRFTGSGSATDFTLTISSVQAEDLADYHCGQSYSYPLTFGAGTKLELKR
notes: Mouse hybridoma antibody
On to B1, for which the binding result (in assay [1]; in assay [2]; in the assay with human cMET) was “binds” throughout.

B2: F6B1P3D12 mouse monoclonal anti-cMET antibody (antibody, V domains shown)
VH: QVQLQQSGAELAKPGASVKMSCRASGYTFTSYWMHWVKQRPGQGLDWIGYIKPSTDNTEYNQKFKDKATLTADKSSSTAYMQLSSLTSEDSAVYYCARSYGNYPLMDYWGQGTSVTVSS
VL: QIVLTQSPAIMSASPGEKVTLTCSASSSVTSNYLYWYQQKPGSSPKLWIYSTSNLASGVPARFSGSGSGTSYSLTISSMEAEDAASYFCHQWSSYPPTFGSGTKLEIKR
notes: Mouse hybridoma antibody
With B2, the binding entry in assay [1] and in assay [2] was “binds” in each case.

B3: F6BP2D4 mouse monoclonal anti-cMET antibody (antibody, V domains shown)
VH: QVQLQQSGAELAKPGASVKMSCKASGYTFTSYWMHWVKQRPGQGLEWIGYINPSTDYIEYNQKFKDKATLTAGKSSSTAYMQLSSLTSEDSAVYYCARSYGNFPLMDYWGQGTSVTVSS
VL: QIVLTQSPAIMSASPGEKVTLTCSASSSVSSNYLYWYQQKPGSSPKLWIYSTSNLASGVPVRFSGSGSGTSYSLTISSMEAEDAASYFCHQWSSYPPTFGSGTKLEIKR
notes: Mouse hybridoma antibody
Regarding B3, the binding result in assay [1] and in assay [2] was “binds” throughout.

B4: hD12-T289C-II (hD12 variant T289C, payload of chemical formula II site-specifically conjugated) (antibody, human IgG2, kappa, V domains shown)
VH: QVQLVQSGAEVKKPGASVKVSCKASGYTFTSYWMHWVKQAPGQGLDWIGYIKPSTDNTEYNQKFKDKATLTADKSTSTAYMELSSLRSEDTAVYYCARSYGNYPLMDYWGQGTTVTVSS
VL: QIVLTQSPAILSLSPGERATLSCSASSSVTSNYLYWYQQKPGSSPKLLIYSTSNLASGVPARFSGSGSGTSYTLTISSLEAEDAASYFCHQWSSYPPTFGSGTKLEIKR
modifications: payload of chemical formula II on Cys 289 (EU numbering), maleimide chemistry
Regarding B4, the binding entry in assay [3] and in assay [4] was “binds” each time.

B5: F6B1P1E2 mouse monoclonal anti-cMET antibody (antibody, V domains shown)
VH: QVQLQQSGAELAKPGASVKMSCKASGYTFTSYWMHWVKQRPGQGLEWIGYINPSTDYTEYNQKFKDKATLTADKSSTTAYMQLSSLTSEDSAVYYCVRSYGNYPLMDYWGQGTSVTVSS
VL: QIVLTQSPAIMSASPGEKVTLTCSASSSVSSNYLYWYHQKPGSSPKLWIYSTSNLASGVPVRFSGSGSGTSYSLTISSMEAEDAASYFCHQWSSYPPTFGSGTKLEIKR
notes: Mouse hybridoma antibody
Take B5: the binding result in assay [1] and in assay [2] was “binds” each time.

Source of the values: patent publication US20210163604A1 (MITSUBISHI TANABE PHARMA, published 2021).
